Values from PubChem BioAssay AID1259405 (NCATS, 2018).

Screen: 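Knock-downs that lift recombinant protein yield in hamster ovary cells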 (primary screen)
System: Chinese hamster CHO-K1 ovary cells with stable secreted eGFP expression
Reagent: single siRNA against mouse genes, 0.8 pmol siRNA per well (2 µl of 400 nM stock)
Duration: 3 days
Measured: 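Per-well intracellular GFP measured by laser scanning cytometry, plus viability from ATP luminescence, each relative to plate median of non-targeting control wells, in %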
Scale: GFP, % of control: higher = more GFP per well, higher productivity; viability (ATP), % of control: higher = more viable cells (more ATP)
Hit rule: 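a knock-down is called active if GFP reaches 120% or more of non-targeting control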
In all, the deposit lists about 50,000 reagents; below is a part drawn at random. About 4,000 of them (8%) count as active. 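Mouse siRNA library applied to hamster cells; one well for each siRNA.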 Entries without a mark were called inactive. The numbers tell different reagents against one gene apart.

target gene | siRNA no. | GFP, % of control | viability (ATP), % of control
Vmn1r171 | 1 | 92.5 | 58.9
Vmn1r171 | 2 | 73.5 | 58.2
Vmn1r171 | 3 | 83.1 | 69.8
E2f7 | 1 | 77.9 | 88.4
E2f7 | 2 | 80.4 | 79.5
Tubb6 | 1 | 84.1 | 75.8
Tubb6 | 2 | 94.9 | 109
Ccdc9b | 1 | 43.5 | 47.7
Ccdc9b | 2 | 29.2 | 24.7
Ccdc9b | 3 | 47.3 | 85.4
Acnat2 | 1 | 76.8 | 88.8
Acnat2 | 2 | 81.3 | 56.3
Acnat2 | 3 | 115 | 105
Camta2 | 1 | 188 (active) | 90.4
Camta2 | 2 | 74.5 | 44.6
Camta2 | 3 | 48.2 | 86.3
Mbd3l2 | 1 | 106 | 94.2
Mbd3l2 | 2 | 95.4 | 80.6
Mbd3l2 | 3 | 73 | 65.1
Adamts4 | 1 | 40.4 | 72.6
Adamts4 | 2 | 85.5 | 59.6
Adamts4 | 3 | 61.4 | 53.3

Next part (2 carried over from the part before).
target gene | siRNA no. | GFP, % of control | viability (ATP), % of control
Adamts4 | 2 | 85.5 | 59.6
Adamts4 | 3 | 61.4 | 53.3
Arhgef12 | 1 | 39.7 | 32.3
Arhgef12 | 2 | 94.8 | 87.1
Arhgef12 | 3 | 115 | 98.6
Cenatac | 1 | 50.6 | 56.9
Cenatac | 2 | 98.2 | 84.1
Cenatac | 3 | 104 | 102
Cyp2d13 | 1 | 147 (active) | 76.9
Cyp2d13 | 2 | 22.2 | 24.6
Cyp2d13 | 3 | 135 (active) | 84.6
Or52d1 | 1 | 105 | 78.4
Or52d1 | 2 | 196 (active) | 66.4
Or52d1 | 3 | 55 | 59.6
